The list shows a part of the results.
compound: C1=CC=C(C=C1)C2=NC(=C(N2)C3=CC=NC=C3)C4=CC(=C(C=C4)Cl)O; experiment: log2 fold change, soluble protein after heating vs DMSO (PISA); higher = thermal stabilisation; K562 lysate, 10 uM; active = over 0.2 and 3.5 SD of the protein, either way, in both replicates (recomputed)
How it was run: (§1)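 K562 pellets were dounce-homogenised in PBS pH 7.4 containing 1 mM MgCl2, and the crude extract, at 1 mg/mL protein, was exposed to 10 μM compound for 30 min. Aliquots were heated for 3 min across 48°C-58°C, pooled, brought to 0.5% NP-40 at 4°C and spun at 21,000xg for 90 min, with the supernatant taken as soluble protein. TMTpro 16plex LC-MS/MS with equalised channel sums quantified that protein. Values are log-two fold changes in thermal stability relative to solvent controls, taken from duplicates.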

Protein sequences, listed by entry. Tags and fused reporters are not part of them. Lines headed by an entry give the natural chain unless they say otherwise; changes in a name come on top.
UniProt Q13686: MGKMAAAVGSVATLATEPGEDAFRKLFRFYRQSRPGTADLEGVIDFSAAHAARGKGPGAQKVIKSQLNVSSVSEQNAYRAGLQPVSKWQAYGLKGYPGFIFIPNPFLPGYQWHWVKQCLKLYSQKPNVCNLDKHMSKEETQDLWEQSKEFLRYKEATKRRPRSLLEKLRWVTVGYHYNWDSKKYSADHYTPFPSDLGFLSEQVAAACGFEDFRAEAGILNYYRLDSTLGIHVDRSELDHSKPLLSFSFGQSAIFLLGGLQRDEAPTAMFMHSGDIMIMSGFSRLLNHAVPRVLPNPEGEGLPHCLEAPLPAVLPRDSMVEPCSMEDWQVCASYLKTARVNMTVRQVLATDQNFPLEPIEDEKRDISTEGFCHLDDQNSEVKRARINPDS
UniProt Q8NB46: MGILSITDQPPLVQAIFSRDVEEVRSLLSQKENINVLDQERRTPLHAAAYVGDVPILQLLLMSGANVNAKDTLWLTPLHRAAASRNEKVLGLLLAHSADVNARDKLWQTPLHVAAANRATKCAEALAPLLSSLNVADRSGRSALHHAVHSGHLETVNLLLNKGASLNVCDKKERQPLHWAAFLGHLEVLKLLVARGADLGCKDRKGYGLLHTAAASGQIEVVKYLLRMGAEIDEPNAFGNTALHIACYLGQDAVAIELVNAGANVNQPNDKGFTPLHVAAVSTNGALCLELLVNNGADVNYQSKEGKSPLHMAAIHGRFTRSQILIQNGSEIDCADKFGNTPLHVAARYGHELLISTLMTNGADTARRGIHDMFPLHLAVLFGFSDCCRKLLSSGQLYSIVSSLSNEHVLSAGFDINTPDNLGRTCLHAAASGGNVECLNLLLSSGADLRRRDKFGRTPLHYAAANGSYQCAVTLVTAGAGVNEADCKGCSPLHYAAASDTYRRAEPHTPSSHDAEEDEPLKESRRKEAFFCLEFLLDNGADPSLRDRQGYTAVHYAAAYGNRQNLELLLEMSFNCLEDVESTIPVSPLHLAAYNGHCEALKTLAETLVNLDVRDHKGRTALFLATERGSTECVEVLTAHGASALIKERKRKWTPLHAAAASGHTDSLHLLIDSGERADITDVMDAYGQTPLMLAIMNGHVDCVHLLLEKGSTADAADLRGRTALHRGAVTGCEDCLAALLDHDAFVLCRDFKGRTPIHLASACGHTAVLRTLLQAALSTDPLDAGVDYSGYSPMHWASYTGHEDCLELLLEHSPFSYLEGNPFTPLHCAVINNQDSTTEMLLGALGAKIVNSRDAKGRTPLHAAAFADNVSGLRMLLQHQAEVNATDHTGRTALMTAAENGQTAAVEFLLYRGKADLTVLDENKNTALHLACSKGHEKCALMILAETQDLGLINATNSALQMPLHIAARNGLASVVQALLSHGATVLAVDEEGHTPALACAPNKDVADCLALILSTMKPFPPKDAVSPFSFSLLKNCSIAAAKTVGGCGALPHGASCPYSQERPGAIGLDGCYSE
UniProt Q6DCA0: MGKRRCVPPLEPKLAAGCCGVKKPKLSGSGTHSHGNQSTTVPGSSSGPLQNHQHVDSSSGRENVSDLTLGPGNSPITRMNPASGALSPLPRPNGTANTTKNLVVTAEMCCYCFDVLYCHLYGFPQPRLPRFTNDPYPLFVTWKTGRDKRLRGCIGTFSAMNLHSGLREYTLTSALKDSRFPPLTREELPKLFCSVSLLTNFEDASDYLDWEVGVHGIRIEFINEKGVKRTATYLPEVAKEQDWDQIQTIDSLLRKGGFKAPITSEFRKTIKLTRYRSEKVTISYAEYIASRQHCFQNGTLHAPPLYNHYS
UniProt Q9HCJ1: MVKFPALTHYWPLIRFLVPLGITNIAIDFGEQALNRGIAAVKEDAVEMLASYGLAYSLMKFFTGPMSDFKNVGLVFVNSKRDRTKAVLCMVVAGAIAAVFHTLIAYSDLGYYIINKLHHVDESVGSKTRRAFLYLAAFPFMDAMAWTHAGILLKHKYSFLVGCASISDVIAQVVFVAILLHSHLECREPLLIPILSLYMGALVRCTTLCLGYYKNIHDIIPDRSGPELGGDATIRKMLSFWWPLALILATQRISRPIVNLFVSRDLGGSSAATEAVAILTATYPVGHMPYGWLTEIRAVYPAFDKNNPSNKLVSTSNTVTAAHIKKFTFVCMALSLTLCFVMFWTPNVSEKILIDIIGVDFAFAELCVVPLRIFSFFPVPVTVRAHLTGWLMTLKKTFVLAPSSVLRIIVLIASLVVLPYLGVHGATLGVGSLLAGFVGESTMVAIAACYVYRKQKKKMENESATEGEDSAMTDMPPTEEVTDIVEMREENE
UniProt P61966: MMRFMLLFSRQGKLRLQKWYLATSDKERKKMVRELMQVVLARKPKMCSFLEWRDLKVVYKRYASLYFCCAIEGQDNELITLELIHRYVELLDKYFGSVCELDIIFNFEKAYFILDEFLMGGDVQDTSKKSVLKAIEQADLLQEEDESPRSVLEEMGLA
UniProt Q9UPM8: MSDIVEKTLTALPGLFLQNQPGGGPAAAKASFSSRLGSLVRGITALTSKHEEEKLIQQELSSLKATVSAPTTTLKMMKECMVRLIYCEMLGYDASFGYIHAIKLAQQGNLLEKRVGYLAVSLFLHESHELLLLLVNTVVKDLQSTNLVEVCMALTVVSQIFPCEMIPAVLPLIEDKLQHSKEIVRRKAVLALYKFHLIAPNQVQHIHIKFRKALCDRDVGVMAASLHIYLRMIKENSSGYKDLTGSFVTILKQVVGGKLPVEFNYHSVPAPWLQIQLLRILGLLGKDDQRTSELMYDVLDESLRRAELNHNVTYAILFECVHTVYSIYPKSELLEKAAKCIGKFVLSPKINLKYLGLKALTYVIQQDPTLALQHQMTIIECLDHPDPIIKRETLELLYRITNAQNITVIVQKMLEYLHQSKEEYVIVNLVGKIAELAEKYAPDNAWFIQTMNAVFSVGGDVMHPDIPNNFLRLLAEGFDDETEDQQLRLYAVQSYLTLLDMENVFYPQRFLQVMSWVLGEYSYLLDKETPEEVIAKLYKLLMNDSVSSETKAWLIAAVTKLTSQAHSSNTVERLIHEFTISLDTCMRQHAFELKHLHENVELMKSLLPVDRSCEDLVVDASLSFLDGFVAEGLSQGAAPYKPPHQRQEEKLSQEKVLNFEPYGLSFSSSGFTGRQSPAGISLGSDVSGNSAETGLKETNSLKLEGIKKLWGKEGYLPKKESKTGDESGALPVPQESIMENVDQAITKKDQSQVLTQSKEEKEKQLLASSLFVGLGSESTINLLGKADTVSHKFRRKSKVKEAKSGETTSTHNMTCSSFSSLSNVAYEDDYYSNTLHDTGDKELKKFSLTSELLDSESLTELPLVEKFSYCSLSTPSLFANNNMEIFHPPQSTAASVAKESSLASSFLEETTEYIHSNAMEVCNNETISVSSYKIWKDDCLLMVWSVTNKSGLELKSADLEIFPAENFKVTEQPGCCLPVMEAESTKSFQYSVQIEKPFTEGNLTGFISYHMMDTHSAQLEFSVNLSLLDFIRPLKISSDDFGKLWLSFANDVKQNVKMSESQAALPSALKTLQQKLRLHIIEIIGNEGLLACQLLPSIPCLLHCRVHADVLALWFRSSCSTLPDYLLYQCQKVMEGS
UniProt Q6UB99: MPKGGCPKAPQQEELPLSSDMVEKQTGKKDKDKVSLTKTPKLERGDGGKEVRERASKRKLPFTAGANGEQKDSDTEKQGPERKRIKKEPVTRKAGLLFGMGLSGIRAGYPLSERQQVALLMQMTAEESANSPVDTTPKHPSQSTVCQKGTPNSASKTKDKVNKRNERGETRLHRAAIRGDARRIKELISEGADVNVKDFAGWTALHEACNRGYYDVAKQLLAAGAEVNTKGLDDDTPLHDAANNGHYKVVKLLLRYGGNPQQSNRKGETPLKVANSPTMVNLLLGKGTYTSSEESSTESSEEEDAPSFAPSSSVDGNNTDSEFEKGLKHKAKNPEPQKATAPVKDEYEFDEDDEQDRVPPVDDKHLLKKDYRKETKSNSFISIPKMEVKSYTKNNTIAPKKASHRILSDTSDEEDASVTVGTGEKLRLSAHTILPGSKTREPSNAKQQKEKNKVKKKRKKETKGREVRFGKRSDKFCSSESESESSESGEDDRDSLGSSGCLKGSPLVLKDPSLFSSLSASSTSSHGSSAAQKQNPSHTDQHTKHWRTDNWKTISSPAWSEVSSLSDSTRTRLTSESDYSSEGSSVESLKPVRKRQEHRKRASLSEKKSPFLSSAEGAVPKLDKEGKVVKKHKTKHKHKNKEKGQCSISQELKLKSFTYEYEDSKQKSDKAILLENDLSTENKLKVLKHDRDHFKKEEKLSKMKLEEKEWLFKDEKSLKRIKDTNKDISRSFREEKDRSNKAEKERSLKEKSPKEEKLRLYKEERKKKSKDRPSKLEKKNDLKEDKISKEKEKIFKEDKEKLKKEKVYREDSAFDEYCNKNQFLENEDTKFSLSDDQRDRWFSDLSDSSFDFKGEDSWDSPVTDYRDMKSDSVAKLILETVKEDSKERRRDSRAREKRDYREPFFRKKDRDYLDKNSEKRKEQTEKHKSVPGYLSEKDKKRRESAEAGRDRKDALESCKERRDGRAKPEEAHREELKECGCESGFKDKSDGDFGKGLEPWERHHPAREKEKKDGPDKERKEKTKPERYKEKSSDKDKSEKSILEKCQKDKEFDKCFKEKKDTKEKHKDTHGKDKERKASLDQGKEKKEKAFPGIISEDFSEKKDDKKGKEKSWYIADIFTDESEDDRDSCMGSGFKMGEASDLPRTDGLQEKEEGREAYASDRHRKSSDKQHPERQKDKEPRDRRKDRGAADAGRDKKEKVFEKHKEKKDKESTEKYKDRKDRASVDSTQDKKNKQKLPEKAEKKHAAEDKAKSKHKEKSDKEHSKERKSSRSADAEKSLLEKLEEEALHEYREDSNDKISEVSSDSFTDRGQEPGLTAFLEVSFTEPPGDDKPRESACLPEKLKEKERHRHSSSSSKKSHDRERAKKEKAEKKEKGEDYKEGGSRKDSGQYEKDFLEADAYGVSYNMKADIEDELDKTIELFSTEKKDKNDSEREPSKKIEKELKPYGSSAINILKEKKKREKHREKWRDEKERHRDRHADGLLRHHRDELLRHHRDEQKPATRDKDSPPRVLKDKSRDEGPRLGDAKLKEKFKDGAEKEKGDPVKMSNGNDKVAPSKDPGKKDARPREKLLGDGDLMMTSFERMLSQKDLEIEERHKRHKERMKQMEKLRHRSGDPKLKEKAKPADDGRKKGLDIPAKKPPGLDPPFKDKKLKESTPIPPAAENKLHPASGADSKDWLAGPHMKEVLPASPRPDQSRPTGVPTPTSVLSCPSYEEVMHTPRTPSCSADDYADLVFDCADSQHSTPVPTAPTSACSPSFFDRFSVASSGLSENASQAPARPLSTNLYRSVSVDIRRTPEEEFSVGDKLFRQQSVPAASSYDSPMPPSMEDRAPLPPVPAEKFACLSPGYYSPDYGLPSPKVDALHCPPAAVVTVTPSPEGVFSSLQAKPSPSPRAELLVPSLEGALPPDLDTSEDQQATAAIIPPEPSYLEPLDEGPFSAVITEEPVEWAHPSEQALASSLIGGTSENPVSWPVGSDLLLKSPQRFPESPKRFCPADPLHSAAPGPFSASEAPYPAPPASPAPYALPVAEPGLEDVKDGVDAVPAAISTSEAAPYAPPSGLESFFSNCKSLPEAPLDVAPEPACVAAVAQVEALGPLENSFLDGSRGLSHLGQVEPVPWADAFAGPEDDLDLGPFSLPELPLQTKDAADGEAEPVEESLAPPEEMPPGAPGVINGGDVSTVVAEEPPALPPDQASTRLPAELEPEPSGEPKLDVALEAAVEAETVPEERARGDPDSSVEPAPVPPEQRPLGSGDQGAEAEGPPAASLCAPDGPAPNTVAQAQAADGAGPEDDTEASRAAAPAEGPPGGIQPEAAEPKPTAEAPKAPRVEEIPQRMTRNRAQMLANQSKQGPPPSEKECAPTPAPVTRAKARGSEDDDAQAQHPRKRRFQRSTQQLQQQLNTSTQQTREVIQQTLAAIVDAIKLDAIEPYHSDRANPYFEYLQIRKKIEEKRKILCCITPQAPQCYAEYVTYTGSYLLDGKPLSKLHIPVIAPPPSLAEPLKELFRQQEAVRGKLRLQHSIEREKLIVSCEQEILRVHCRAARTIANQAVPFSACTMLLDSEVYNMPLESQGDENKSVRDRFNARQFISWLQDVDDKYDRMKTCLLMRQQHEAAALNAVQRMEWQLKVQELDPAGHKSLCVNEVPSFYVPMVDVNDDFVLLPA

log2 fold change, inactive:
ALOX12B (UniProt O75342) -0.201
ANKHD1 isoform 2 (UniProt Q8IWZ3) 0.061
ALKBH1 (UniProt Q13686) 0.024
ANKRD52 (UniProt Q8NB46) 0.013
AMMECR1L (UniProt Q6DCA0) -0.081
ALG10B (UniProt Q5I7T1) -0.039
ALKBH6 isoform 2 (UniProt Q3KRA9) 0.018
ALG11 (UniProt Q2TAA5) -0.023
AMBRA1 isoform 5 (UniProt Q9C0C7) 0.043
AKT1S1 isoform 3 (UniProt Q96B36) 0.019
ALDH18A1 (UniProt P54886) -0.016
ANGPTL4 (UniProt M0R3A2) 0.262
ANKH (UniProt Q9HCJ1) 0.016
AMFR (UniProt Q9UKV5) -0.026
ANO10 (UniProt Q9NW15) -0.032
AP1S3 isoform 4 (UniProt Q96PC3) 0.198
ANKRD46 (UniProt Q86W74) 0.008
ANKRD40 (UniProt Q6AI12) 0.065
AP1S1 (UniProt P61966) -0.01
AP4E1 (UniProt Q9UPM8) -0.016
ANKRD11 (UniProt Q6UB99) 0.003
ANXA13 isoform 2 (UniProt P27216) -0.029
AP2M1 (UniProt Q96CW1) -0.01
ANAPC16 (UniProt Q96DE5) -0.089
ANKRD10 (UniProt Q9NXR5) 0.012
ANXA2 (UniProt H0YL33) -0.027

compound: C1=CC=C2C(=C1)C3=NNC4=CC=CC(=C43)C2=O; experiment: as above
How it was run: as §1

log2 fold change, inactive:
ALKBH1 (UniProt Q13686) -0.022
ANKRD52 (UniProt Q8NB46) -0.092
AMMECR1L (UniProt Q6DCA0) 0.006
ANKRD29 (UniProt Q8N6D5) -0.173
ALKBH6 isoform 2 (UniProt Q3KRA9) -0.005
AMBRA1 isoform 5 (UniProt Q9C0C7) 0.107
AKT1S1 isoform 3 (UniProt Q96B36) -0.015
ALDH18A1 (UniProt P54886) -0.025
ALDOA (UniProt H3BPS8) -0.005
ANGPTL4 (UniProt M0R3A2) -0.152
ANKH (UniProt Q9HCJ1) 0.018
AMFR (UniProt Q9UKV5) -0.219
ANO10 (UniProt Q9NW15) 0.013
ANKRD44 isoform 2 (UniProt Q8N8A2) -0.257
ANKRD46 (UniProt Q86W74) 0.088
ANKRD40 (UniProt Q6AI12) -0.163
AP1S1 (UniProt P61966) 0.076
AP4E1 (UniProt Q9UPM8) -0.052
AP3D1 isoform 2 (UniProt O14617) -0.026
ANKRD11 (UniProt Q6UB99) -0.038
ANXA13 isoform 2 (UniProt P27216) 0.029
AP2M1 (UniProt Q96CW1) -0.046
ANAPC16 (UniProt Q96DE5) -0.028
ANKRD10 (UniProt Q9NXR5) -0.066

compound: C1CCN(C1)C(=O)NC2=CC=CC(=C2)NC3=NC=C(C(=N3)NCCC4=CN=CN4)Br; experiment: as above
How it was run: as §1

log2 fold change, inactive:
ANKHD1 isoform 2 (UniProt Q8IWZ3) 0.037
ALKBH1 (UniProt Q13686) 0.211
ANKRD52 (UniProt Q8NB46) 0.008
AMMECR1L (UniProt Q6DCA0) 0.001
ANKRD29 (UniProt Q8N6D5) -0.078
ALKBH6 isoform 2 (UniProt Q3KRA9) -0.045
AMBRA1 isoform 5 (UniProt Q9C0C7) -0.032
AKT1S1 isoform 3 (UniProt Q96B36) 0.034
ALDH18A1 (UniProt P54886) -0.022
ALDOA (UniProt H3BPS8) 0.007
ANGPTL4 (UniProt M0R3A2) 0.091
ANKH (UniProt Q9HCJ1) -0.118
AMFR (UniProt Q9UKV5) -0.324
ANO10 (UniProt Q9NW15) -0.034
ANKRD44 isoform 2 (UniProt Q8N8A2) -0.059
ANKRD40 (UniProt Q6AI12) 0.296
AP1S1 (UniProt P61966) 0.015
AP4E1 (UniProt Q9UPM8) -0.021
ANKRD11 (UniProt Q6UB99) -0.103
AP2M1 (UniProt Q96CW1) -0.046
ANAPC16 (UniProt Q96DE5) 0.295

From the supplement of paper PMC10849652
